PubChem BioAssay AID1259308 | NCATS – 2017

Test: 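Candidate targets for better recombinant protein yield in mammalian cells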 (primary screen)
Cell system: human HEK293 embryonic kidney cells stably expressing firefly luciferase (HEK-CMV-Luc2-Hygro)
Knock-down reagent: single siRNA against human genes, 0.8 pmol siRNA per well
Time to read-out: 72 h
Detection: 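Luciferase light (ONE-Glo) measured on one replicate plate set and viability (CellTiter-Glo) on the other, scaled to a negative control siRNA, with robust z-scores and luciferase per cell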
Reading the numbers: total luciferase, z-score and total luciferase, % of control: higher = more reporter protein produced; luciferase per cell, z-score: higher = more reporter output per viable cell; viable cells, % of control: higher = more viable cells
Call rule: 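Active when the median/MAD z-score for overall luciferase is greater than 3; a gene was taken forward for validation with new siRNAs if at least two of its three siRNAs passed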
Meaning of the calls: active = raised luciferase; inactive = no rise
The whole screen tested about 59,000 reagents; shown is an unselected part. Of all reagents, about 1,510 (2.6%) are marked active. 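Calls use total luciferase alone and ignore viability, so some active siRNAs may act by altering cell number.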 Unmarked entries are inactive. The numbers tell different reagents against one gene apart.

gene	reagent	total luciferase, z-score	total luciferase, % of control	luciferase per cell, z-score	viable cells, % of control
VRK3	1	1.18	105	-0.00456	118
VRK3	2	-0.174	78.4	-0.607	103
VRK3	3	-0.223	77.5	-0.711	104
PCSK2	1	0.0452	82.8	-0.277	99.5
PCSK2	2	-0.76	66.8	-0.657	88.7
PCSK2	3	0.375	89.3	0.569	85.9
FCRLB	1	0.373	89.3	1.14	73.9
FCRLB	2	0.0574	83	0.525	80.8
FCRLB	3	-0.552	70.9	-1.24	110
DIPK2B	1	-0.828	65.4	-0.233	77.7
DIPK2B	2	1.3	108	1.26	86.3
DIPK2B	3	-0.223	77.5	-0.454	97.5
DIPK2B	4	-0.613	69.7	-1	101
DIPK2B	5	-1.97	42.7	-1.12	64
DIPK2B	6	0.569	93.2	0.589	89.2
SPRR2G	1	0.42	90.2	0.217	95.3
SPRR2G	2	2.37	129	1.53	96.3
SPRR2G	3	0.0414	82.7	0.0528	91.1
OR13J1	1	-0.951	63	0.668	59
OR13J1	2	-0.393	74.1	-0.3	89.6
OR13J1	3	-0.206	77.8	0.785	70.7
B3GNT2	1	-0.92	63.6	-0.97	91.7
B3GNT2	2	-0.0222	81.4	-0.236	96.8
B3GNT2	3	0.179	85.4	0.493	83.9

2 neighbouring reagents already listed:
gene	reagent	total luciferase, z-score	total luciferase, % of control	luciferase per cell, z-score	viable cells, % of control
FCRLB	3	-0.552	70.9	-1.24	110
DIPK2B	1	-0.828	65.4	-0.233	77.7
